Data taken from the supplement of paper PMC10849652.
The other results are listed elsewhere or left out.

Amino acid sequences for entries named in this document (tags omitted). A change or cut given only in a name is not applied to a line headed by its entry.
UniProt Q9BQ52: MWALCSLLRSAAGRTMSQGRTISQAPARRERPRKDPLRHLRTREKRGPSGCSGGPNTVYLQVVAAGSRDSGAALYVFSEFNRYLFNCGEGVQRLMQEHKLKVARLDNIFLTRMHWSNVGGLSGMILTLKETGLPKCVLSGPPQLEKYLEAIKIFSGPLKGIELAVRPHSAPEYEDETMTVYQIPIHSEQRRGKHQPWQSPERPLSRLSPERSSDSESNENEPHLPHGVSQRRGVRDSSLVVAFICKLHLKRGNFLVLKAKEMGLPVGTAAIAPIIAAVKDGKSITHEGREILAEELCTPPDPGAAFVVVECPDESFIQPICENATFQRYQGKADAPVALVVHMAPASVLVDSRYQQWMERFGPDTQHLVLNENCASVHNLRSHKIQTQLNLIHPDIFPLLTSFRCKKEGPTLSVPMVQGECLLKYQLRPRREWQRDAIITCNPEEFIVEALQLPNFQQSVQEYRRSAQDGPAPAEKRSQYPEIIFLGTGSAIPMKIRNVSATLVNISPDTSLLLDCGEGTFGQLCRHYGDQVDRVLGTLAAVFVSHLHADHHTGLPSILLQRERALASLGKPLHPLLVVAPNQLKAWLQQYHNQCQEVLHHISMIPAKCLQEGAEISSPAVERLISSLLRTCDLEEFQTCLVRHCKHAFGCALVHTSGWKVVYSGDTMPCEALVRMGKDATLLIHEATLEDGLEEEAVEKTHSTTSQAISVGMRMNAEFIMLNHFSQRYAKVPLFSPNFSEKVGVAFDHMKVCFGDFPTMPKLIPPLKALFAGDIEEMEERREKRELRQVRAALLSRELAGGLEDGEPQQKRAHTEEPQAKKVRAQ
UniProt P60842, whole entry, looked up: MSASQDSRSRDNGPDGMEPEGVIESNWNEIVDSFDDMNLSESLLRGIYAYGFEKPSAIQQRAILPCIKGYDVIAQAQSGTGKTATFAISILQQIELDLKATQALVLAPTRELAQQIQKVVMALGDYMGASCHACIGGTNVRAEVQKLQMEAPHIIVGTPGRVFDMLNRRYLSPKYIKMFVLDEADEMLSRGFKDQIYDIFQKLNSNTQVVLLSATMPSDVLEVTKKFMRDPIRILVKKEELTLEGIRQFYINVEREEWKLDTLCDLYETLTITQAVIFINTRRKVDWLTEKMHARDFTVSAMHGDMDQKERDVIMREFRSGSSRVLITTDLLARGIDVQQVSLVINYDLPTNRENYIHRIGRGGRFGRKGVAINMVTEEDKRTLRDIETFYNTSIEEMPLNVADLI
UniProt Q13144, whole entry, looked up: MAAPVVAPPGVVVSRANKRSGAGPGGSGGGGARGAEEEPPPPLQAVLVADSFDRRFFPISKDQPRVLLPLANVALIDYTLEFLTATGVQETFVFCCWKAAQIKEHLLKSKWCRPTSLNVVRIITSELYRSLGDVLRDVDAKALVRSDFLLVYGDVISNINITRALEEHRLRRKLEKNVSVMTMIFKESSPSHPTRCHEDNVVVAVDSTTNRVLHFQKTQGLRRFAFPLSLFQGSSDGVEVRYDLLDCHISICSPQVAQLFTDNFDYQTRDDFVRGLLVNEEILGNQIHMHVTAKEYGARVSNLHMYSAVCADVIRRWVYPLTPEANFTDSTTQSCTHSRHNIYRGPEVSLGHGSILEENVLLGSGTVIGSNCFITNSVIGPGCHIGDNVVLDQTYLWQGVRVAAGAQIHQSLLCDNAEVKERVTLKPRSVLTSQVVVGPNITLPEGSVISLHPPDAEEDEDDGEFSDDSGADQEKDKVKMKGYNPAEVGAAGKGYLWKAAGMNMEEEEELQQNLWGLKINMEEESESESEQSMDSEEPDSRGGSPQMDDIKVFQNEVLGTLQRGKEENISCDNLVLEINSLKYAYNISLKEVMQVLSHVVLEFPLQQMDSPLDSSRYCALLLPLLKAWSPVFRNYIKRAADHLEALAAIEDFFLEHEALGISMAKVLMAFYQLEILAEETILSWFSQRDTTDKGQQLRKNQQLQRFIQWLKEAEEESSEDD
UniProt O00303, whole entry, looked up: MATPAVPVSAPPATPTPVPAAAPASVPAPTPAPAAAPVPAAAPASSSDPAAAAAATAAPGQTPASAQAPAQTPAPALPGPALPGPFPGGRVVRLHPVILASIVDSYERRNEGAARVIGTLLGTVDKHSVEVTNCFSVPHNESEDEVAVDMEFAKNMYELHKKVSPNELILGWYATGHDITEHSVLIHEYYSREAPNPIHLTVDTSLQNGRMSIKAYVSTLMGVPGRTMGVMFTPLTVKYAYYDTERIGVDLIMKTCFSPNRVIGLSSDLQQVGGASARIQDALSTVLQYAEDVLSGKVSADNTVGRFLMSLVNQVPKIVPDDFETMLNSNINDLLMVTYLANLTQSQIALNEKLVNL
UniProt Q9P0I2: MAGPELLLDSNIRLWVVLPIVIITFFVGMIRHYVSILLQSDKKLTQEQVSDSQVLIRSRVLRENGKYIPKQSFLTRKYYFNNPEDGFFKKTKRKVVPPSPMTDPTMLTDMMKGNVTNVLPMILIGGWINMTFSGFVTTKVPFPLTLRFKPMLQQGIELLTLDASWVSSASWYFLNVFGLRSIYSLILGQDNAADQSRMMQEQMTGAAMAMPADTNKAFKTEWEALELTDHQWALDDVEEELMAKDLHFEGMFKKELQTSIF
UniProt Q15029: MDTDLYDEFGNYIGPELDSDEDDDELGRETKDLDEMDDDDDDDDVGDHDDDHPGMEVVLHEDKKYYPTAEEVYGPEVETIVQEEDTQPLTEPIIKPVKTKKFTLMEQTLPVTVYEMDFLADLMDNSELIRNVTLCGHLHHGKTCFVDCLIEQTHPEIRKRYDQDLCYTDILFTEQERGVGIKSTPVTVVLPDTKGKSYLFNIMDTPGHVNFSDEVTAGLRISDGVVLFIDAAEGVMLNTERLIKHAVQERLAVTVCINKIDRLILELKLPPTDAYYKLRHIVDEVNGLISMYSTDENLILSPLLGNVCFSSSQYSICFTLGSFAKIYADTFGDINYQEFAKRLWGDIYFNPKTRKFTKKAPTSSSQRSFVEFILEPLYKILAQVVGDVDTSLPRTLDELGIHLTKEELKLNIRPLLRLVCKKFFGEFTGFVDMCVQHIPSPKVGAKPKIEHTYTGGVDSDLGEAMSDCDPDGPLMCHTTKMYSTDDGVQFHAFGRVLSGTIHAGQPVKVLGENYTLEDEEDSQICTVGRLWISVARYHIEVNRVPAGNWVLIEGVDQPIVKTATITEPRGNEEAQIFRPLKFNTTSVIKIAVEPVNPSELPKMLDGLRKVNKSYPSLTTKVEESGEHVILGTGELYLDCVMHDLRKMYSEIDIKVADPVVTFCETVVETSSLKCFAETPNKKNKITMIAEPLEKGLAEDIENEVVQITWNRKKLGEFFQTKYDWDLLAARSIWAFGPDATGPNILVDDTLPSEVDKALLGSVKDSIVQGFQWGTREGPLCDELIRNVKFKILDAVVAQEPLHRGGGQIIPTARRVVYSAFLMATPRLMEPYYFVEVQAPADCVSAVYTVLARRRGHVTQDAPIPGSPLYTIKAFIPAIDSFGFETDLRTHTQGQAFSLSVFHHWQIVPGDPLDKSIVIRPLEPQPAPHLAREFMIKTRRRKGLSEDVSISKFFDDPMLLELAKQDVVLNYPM
UniProt Q9H4G0, whole entry, looked up: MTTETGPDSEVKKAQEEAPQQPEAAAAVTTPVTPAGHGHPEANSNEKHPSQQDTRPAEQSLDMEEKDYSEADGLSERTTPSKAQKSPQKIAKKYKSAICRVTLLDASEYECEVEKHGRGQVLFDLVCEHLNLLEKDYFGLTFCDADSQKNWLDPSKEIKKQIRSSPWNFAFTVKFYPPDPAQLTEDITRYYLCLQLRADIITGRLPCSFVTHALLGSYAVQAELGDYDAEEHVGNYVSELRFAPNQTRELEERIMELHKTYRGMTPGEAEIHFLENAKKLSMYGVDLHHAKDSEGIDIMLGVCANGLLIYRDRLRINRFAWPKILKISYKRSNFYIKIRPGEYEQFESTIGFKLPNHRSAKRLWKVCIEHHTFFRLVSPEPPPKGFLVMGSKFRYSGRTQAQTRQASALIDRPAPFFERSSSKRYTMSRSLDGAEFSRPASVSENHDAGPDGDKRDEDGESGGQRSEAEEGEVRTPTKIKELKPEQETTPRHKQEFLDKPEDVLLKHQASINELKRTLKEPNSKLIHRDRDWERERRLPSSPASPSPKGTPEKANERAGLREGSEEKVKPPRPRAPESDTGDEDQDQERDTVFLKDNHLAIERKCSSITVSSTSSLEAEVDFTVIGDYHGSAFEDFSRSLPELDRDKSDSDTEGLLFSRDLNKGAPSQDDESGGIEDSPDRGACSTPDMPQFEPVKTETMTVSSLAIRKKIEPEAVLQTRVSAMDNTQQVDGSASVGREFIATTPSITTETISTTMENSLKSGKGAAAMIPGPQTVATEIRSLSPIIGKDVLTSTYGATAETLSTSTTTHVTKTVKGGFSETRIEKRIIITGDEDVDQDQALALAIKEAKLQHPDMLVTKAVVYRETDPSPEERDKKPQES
UniProt Q9GZT9: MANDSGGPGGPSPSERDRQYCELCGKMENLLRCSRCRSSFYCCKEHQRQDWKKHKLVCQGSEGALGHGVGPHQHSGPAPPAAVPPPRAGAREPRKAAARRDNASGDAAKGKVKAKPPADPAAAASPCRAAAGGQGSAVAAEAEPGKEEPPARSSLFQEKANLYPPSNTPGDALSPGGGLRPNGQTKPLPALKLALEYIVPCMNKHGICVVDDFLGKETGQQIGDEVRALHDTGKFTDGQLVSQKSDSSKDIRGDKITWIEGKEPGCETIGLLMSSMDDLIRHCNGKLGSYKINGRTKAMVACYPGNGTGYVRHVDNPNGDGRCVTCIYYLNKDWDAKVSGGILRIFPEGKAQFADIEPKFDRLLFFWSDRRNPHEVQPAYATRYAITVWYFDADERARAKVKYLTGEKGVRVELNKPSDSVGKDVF
UniProt P50402: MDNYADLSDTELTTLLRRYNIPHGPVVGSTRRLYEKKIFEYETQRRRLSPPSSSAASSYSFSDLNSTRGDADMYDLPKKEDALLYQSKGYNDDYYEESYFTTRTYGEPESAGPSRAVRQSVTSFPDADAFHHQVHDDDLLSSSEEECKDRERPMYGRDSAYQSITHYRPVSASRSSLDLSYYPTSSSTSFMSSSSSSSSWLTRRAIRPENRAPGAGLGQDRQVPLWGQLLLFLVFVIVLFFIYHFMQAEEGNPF
UniProt Q14152, whole entry, looked up: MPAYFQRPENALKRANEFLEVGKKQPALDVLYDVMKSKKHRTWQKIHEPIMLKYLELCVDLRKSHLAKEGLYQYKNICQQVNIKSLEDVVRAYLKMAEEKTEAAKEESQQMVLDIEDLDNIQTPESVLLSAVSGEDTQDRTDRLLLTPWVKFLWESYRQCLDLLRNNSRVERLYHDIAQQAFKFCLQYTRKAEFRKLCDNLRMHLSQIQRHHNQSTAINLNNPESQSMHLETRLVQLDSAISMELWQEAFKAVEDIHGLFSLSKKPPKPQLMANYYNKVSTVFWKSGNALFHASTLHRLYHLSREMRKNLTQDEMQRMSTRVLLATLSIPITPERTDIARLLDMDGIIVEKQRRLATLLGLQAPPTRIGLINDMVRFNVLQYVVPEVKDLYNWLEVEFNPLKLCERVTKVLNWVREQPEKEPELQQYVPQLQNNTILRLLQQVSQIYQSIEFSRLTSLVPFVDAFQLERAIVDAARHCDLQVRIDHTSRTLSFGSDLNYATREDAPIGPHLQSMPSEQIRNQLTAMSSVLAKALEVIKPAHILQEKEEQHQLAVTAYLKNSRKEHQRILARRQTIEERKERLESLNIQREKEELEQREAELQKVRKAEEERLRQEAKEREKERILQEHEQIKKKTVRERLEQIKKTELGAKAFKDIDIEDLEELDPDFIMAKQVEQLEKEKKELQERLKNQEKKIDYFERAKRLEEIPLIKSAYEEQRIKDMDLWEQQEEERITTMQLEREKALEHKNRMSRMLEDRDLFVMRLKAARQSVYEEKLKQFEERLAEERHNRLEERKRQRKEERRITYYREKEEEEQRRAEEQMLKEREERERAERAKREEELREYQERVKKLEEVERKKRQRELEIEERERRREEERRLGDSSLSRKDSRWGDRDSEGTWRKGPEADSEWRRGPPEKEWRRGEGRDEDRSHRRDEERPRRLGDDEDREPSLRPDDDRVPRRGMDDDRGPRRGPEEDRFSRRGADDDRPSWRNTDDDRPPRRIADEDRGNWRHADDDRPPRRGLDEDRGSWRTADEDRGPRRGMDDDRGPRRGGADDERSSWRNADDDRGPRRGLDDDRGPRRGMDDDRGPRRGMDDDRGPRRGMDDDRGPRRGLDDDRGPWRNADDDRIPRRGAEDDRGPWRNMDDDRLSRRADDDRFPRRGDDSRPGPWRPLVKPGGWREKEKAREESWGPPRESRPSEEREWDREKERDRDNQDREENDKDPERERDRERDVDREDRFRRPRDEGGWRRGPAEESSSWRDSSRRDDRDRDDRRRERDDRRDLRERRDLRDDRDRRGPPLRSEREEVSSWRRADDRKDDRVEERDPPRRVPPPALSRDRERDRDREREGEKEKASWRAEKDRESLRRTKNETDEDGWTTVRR

Key:
Test in all cases: log2 fold change, soluble protein after heating vs DMSO (PISA); higher = thermal stabilisation; K562 cells, 10 uM, 30 min; active = over 0.2 and 3.5 SD of the protein, either way, in both replicates (recomputed)
erlotinib = compound: C#Cc1cccc(Nc2ncnc3cc(OCCOC)c(OCCOC)cc23)c1 [erlotinib]
Summary of the method: (§1)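 Thermal stability values are relative to control samples and come from duplicates. They are expressed as log2 fold changes. For measurement, K562 cells (2×10^6 cells/mL) received 10 μM compound for 30 min, and aliquots were heated for 3 min over 48°C-58°C, pooled, and extracted at 4°C in PBS with 0.5% NP-40. Soluble protein, the supernatant after 21,000xg for 90 min, was quantified by TMTpro 16plex LC-MS/MS with equalised channel sums.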

[1] = compound: C/C(=N\NC(=O)C1=CC(=CC=C1)S(=O)(=O)N2CCOCC2)/C3=C(C=CC(=C3)Cl)O
Summary of the method: as §1

[2] = compound: C1=CC(=C(C=C1Cl)C2=NC3=NC=CN=C3C(=N2)NC4=CC=NC=C4)F
Summary of the method: as §1

[3] = compound: C1=CC(=CC=C1C2=NC3=C(N2)C=C(C=C3)C(=O)N)OC4=CC=C(C=C4)Cl
Summary of the method: as §1

[4] = compound: C1=CC2=C(C=CC(=C2)/C=C\3/C(=O)NC(=NCC4=CC=CS4)S3)N=C1
Summary of the method: as §1

[5] = compound: C1=CC2=NC=CN=C2C=C1/C=C/3\C(=O)NC(=O)S3
Summary of the method: as §1

[6] = compound: C1=CC=C(C=C1)C2=NC(=C(N2)C3=CC=NC=C3)C4=CC(=C(C=C4)Cl)O
Summary of the method: as §1

[7] = compound: C1=CC=C2C(=C1)C3=NNC4=CC=CC(=C43)C2=O
Summary of the method: as §1

[8] = compound: C1CCN(C1)C(=O)NC2=CC=CC(=C2)NC3=NC=C(C(=N3)NCCC4=CN=CN4)Br
Summary of the method: as §1

[9] = compound: C1CN(CCC1(CC2=CC=C(C=C2)Cl)N)C3=NC=NC4=C3C=CN4
Summary of the method: as §1

Target	log2 fold change (erlotinib)	log2 fold change [1]	log2 fold change [2]	log2 fold change [3]	log2 fold change [4]	log2 fold change [5]	log2 fold change [6]	log2 fold change [7]	log2 fold change [8]	log2 fold change [9]
ELP4 (UniProt Q96EB1)	inactive: 0.018	inactive: -0.073	inactive: -0.034	inactive: 0.06	inactive: -0.014	inactive: -0.002	inactive: -0.03	inactive: -0.063	inactive: -0.039	inactive: 0.055
ELAC2 (UniProt Q9BQ52)	inactive: 0.016	inactive: 0.022	inactive: 0.028	inactive: 0.042	inactive: -0.017	inactive: 0.018	inactive: 0.025	inactive: 0.005	inactive: 0.001	inactive: 0.073
EIF4G1 isoform 8 (UniProt Q04637)	inactive: -0.092	inactive: 0.128	inactive: -0.065	inactive: 0.011	inactive: -0.036	inactive: -0.089	inactive: -0.099	inactive: -0.246	inactive: -0.197	inactive: -0.28
EFNB1 (UniProt P98172)	inactive: 0.039	inactive: 0.023	inactive: 0.113	inactive: 0.015	inactive: -0.106	inactive: -0.038	inactive: 0.087	inactive: -0.028	inactive: -0.038	inactive: 0.133
ENPP3 (UniProt O14638)	inactive: -0.115	inactive: -0.083	inactive: 0.003	inactive: 0.003	inactive: 0.031	inactive: -0.008	inactive: 0.007	inactive: -0.047	–	–
EIF3J (UniProt O75822)	inactive: 0.056	inactive: -0.004	inactive: 0.068	inactive: -0.033	inactive: 0.012	inactive: 0.048	inactive: 0.101	inactive: 0.021	inactive: 0.009	inactive: -0.01
EOGT (UniProt Q5NDL2)	inactive: -0.058	inactive: -0.018	inactive: -0.032	inactive: 0.002	inactive: -0.026	inactive: -0.016	inactive: -0.032	inactive: 0.032	inactive: 0.004	inactive: 0.04
ENO2 (UniProt P09104)	inactive: -0.018	inactive: -0.006	inactive: 0.011	inactive: 0.053	inactive: 0.023	inactive: 0.001	inactive: 0.002	inactive: 0.006	inactive: -0.032	inactive: -0.004
EIF4A1 (UniProt P60842)	inactive: 0.036	inactive: 0.049	inactive: 0.047	inactive: -0.023	inactive: 0.016	inactive: -0.021	inactive: 0.007	inactive: 0.035	inactive: -0.039	inactive: 0.054
EIPR1 (UniProt Q53HC9)	inactive: -0.002	inactive: 0.05	inactive: 0.048	inactive: -0.002	inactive: -0.007	inactive: -0.051	inactive: 0	inactive: -0.012	inactive: -0.058	inactive: 0.032
EIF2B5 (UniProt Q13144)	inactive: -0.016	inactive: 0.062	inactive: -0.044	inactive: 0.065	inactive: 0.046	inactive: -0.01	inactive: -0.004	inactive: -0.038	inactive: 0.111	inactive: -0.102
EHD2 (UniProt Q9NZN4)	inactive: -0.044	inactive: 0.025	inactive: 0.013	inactive: -0.077	inactive: 0.007	inactive: -0.01	inactive: -0.003	inactive: 0.01	inactive: -0.008	inactive: 0.041
EML3 (UniProt Q32P44)	inactive: 0.04	inactive: 0.163	inactive: -0.08	inactive: -0.011	inactive: -0.219	inactive: 0.045	inactive: 0.005	inactive: 0	inactive: -0.131	inactive: -0.068
ELOVL1 (UniProt Q9BW60)	inactive: -0.022	inactive: 0.019	inactive: -0.01	inactive: -0.059	inactive: 0.036	inactive: 0.011	inactive: 0.069	inactive: -0.11	inactive: -0.124	inactive: 0.014
EIF3F (UniProt O00303)	inactive: 0.015	inactive: 0.096	inactive: 0.004	inactive: 0.006	inactive: 0.028	inactive: 0.034	inactive: 0.103	inactive: 0.006	inactive: -0.01	inactive: -0.108
EIF2B2 (UniProt P49770)	inactive: -0.039	inactive: 0.018	inactive: -0.009	inactive: 0.008	inactive: -0.001	inactive: 0.009	inactive: 0.032	inactive: -0.046	inactive: -0.006	inactive: -0.054
EMC3 (UniProt Q9P0I2)	inactive: -0.024	inactive: 0.023	inactive: 0.02	inactive: -0.026	inactive: 0.022	inactive: 0.06	inactive: -0.04	inactive: -0.024	inactive: 0.024	inactive: 0.019
EIF4B (UniProt P23588)	inactive: 0.033	inactive: -0.013	inactive: 0.005	inactive: 0.027	inactive: -0.042	inactive: -0.003	inactive: 0.007	inactive: 0.069	inactive: 0.014	inactive: 0.037
EIF3E (UniProt P60228)	inactive: 0.039	inactive: 0.099	inactive: -0.033	inactive: -0.022	inactive: 0.035	inactive: -0.027	inactive: 0.098	inactive: 0.006	inactive: -0.013	inactive: -0.171
EFTUD2 (UniProt Q15029)	inactive: -0.031	inactive: -0.01	inactive: -0.01	inactive: 0.024	inactive: -0.037	inactive: 0.033	inactive: -0.031	inactive: -0.043	inactive: -0.011	inactive: 0.052
EIF3D (UniProt O15371)	inactive: 0.023	inactive: 0.106	inactive: -0.054	inactive: -0.082	inactive: 0.071	inactive: -0.012	inactive: -0.023	inactive: -0.008	inactive: -0.028	inactive: -0.047
EPB41L1 (UniProt Q9H4G0)	inactive: -0.036	inactive: -0.083	inactive: -0.006	inactive: 0.067	inactive: -0.071	inactive: 0.009	inactive: 0.005	inactive: 0.066	inactive: -0.075	inactive: 0.002
EGLN1 (UniProt Q9GZT9)	inactive: 0.035	active: -0.355	inactive: 0.075	inactive: -0.035	inactive: 0.043	inactive: -0.08	inactive: 0.021	inactive: -0.02	inactive: 0.01	inactive: -0.003
EMG1 (UniProt Q92979)	inactive: -0.096	inactive: -0.045	inactive: -0.145	inactive: 0.07	inactive: -0.009	inactive: 0.012	inactive: 0.082	inactive: -0.001	inactive: -0.03	inactive: -0.034
EIF3C (UniProt Q99613)	inactive: 0.056	inactive: 0.044	inactive: -0.057	inactive: -0.024	inactive: 0.026	inactive: 0.007	inactive: -0.047	inactive: -0.025	inactive: -0.005	inactive: -0.147
EMD (UniProt P50402)	inactive: 0.025	inactive: 0.002	inactive: -0.078	inactive: 0.056	inactive: 0.008	inactive: 0.033	inactive: -0.011	inactive: -0.072	inactive: 0.031	inactive: 0.074
EIF3A (UniProt Q14152)	inactive: 0.021	inactive: 0.129	inactive: -0.041	inactive: -0.047	inactive: 0.033	inactive: -0.019	inactive: 0.028	inactive: 0.042	inactive: -0.001	inactive: -0.132
EEF2 (UniProt P13639)	inactive: -0.015	inactive: 0.009	inactive: 0.05	inactive: 0.011	inactive: -0.01	inactive: -0.005	inactive: 0.025	inactive: -0.026	inactive: -0.017	inactive: 0.032

Given in markdown: part of the list above.

| Target | log2 fold change (erlotinib) | log2 fold change [1] | log2 fold change [2] | log2 fold change [3] | log2 fold change [4] | log2 fold change [5] | log2 fold change [6] | log2 fold change [7] | log2 fold change [8] | log2 fold change [9] |
| --- | --- | --- | --- | --- | --- | --- | --- | --- | --- | --- |
| EPB41L1 (UniProt Q9H4G0) | inactive: -0.036 | inactive: -0.083 | inactive: -0.006 | inactive: 0.067 | inactive: -0.071 | inactive: 0.009 | inactive: 0.005 | inactive: 0.066 | inactive: -0.075 | inactive: 0.002 |
| EGLN1 (UniProt Q9GZT9) | inactive: 0.035 | active: -0.355 | inactive: 0.075 | inactive: -0.035 | inactive: 0.043 | inactive: -0.08 | inactive: 0.021 | inactive: -0.02 | inactive: 0.01 | inactive: -0.003 |
| EMG1 (UniProt Q92979) | inactive: -0.096 | inactive: -0.045 | inactive: -0.145 | inactive: 0.07 | inactive: -0.009 | inactive: 0.012 | inactive: 0.082 | inactive: -0.001 | inactive: -0.03 | inactive: -0.034 |
| EIF3C (UniProt Q99613) | inactive: 0.056 | inactive: 0.044 | inactive: -0.057 | inactive: -0.024 | inactive: 0.026 | inactive: 0.007 | inactive: -0.047 | inactive: -0.025 | inactive: -0.005 | inactive: -0.147 |
| EMD (UniProt P50402) | inactive: 0.025 | inactive: 0.002 | inactive: -0.078 | inactive: 0.056 | inactive: 0.008 | inactive: 0.033 | inactive: -0.011 | inactive: -0.072 | inactive: 0.031 | inactive: 0.074 |
| EIF3A (UniProt Q14152) | inactive: 0.021 | inactive: 0.129 | inactive: -0.041 | inactive: -0.047 | inactive: 0.033 | inactive: -0.019 | inactive: 0.028 | inactive: 0.042 | inactive: -0.001 | inactive: -0.132 |
